These are yes or no findings as the source states them, for the method shown. In cells and extracts the contact can be indirect. Some binding calls cover weakened binding; strength is not graded here.
Target: cyclic GMP-AMP synthase (cGAS), FLAG-tagged (human) (UniProt Q8N884)
Experiment: co-IP; HEK-293T cells co-transfected with pENTER-N-FLAG-cGAS and pXJ40-HA-ENV (5 ug + 5 ug), 48 h; lysate supernatant mixed with anti-Flag or anti-HA magnetic beads (mouse IgG as negative control) at 4 °C overnight; washed with cell lysis buffer; western blotting

The chains behind the UniProt entries cited, without tags or fusion partners. Residues count along the entry.
UniProt Q8N884: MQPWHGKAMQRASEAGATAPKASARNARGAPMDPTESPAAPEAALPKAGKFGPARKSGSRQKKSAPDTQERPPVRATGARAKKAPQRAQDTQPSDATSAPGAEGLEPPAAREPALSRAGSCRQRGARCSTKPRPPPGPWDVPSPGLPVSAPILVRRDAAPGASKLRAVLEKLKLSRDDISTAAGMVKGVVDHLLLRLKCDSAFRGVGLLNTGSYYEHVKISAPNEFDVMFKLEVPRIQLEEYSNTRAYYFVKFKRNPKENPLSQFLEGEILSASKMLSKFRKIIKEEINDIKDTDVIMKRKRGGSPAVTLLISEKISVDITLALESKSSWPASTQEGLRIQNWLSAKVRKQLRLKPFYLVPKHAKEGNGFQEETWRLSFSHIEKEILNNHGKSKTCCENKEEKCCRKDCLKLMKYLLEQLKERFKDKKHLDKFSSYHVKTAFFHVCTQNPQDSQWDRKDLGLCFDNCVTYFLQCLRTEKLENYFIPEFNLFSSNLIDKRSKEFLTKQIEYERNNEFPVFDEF
UniProt Q9UQF0, residues 21-538: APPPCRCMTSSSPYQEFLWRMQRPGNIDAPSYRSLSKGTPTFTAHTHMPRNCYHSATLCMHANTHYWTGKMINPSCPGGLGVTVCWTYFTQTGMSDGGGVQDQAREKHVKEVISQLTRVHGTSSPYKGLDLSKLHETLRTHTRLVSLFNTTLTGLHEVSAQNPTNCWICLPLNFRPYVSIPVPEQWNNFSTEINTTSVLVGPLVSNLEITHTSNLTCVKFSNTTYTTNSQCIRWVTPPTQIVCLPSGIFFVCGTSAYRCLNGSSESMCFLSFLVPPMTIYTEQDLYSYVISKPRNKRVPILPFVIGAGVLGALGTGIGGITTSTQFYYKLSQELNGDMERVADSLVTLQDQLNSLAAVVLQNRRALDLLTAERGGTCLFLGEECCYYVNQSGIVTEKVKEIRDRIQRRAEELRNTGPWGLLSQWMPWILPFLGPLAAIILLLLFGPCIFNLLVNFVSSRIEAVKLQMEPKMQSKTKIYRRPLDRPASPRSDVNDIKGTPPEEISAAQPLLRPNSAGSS

HERV-W ENV (endogenous retroviral envelope glycoprotein of the W family), HA-tagged (from UniProt Q9UQF0 21-538)
binding: binds

— PMC9917391
